Test results from PMC5959946.
These are yes or no findings as the source states them, for the method shown. In cells and extracts the contact can be indirect. Some entries that bind do so weakly or less than the wild type.

Sequences of proteins named here, by UniProt entry; tags and fusion partners are left off.
UniProt P60484: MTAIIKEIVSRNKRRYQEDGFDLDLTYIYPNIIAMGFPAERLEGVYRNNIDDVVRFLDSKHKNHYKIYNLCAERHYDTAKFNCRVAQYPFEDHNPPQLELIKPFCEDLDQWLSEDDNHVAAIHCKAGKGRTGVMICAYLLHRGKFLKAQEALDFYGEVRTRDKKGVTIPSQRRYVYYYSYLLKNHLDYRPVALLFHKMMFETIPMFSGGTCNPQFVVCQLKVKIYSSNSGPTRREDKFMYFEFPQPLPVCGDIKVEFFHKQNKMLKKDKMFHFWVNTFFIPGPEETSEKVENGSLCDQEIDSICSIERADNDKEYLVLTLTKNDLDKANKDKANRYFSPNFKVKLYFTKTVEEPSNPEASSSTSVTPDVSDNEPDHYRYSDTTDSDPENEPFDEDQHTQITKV

Molecular target: PTEN (human (endogenous in 7404 HCC cells)) (UniProt P60484)
Assay: co-IP; endogenous proteins from HCC cell lysates; immunoprecipitation (control IgG or anti-PTEN antibody) and western blot; control, chemerin-overexpressing, chemerin knockdown and chemerin-treated (1 nM) cells

- binding: binds
B1: chemokine-like receptor 1 (CMKLR1) (receptor, UniProt Q99788 1-373)
chain: MRMEDEDYNTSISYGDEYPDYLDSIVVLEDLSPLEARVTRIFLVVVYSIVCFLGILGNGLVIIIATFKMKKTVNMVWFLNLAVADFLFNVFLPIHITYAAMDYHWVFGTAMCKISNFLLIHNMFTSVFLLTIISSDRCISVLLPVWSQNHRSVRLAYMACMVIWVLAFFLSSPSLVFRDTANLHGKISCFNNFSLSTPGSSSWPTHSQMDPVGYSRHMVVTVTRFLCGFLVPVLIITACYLTIVCKLQRNRLAKTKKPFKIIVTIIITFFLCWCPYHTLNLLELHHTAMPGSVFSLGLPLATALAIANSCMNPILYVFMGQDFKKFKVALFSRLVNALSEDTGHSSYPSHRSFTKMSSMNERTSMNERETGML
